Results on 1 compound are retold here after patent publication US6638943B2 (The University of Tennessee Research Foundation, priority 2001, dated 2003).

Protein sequences, listed by entry. Tags and fused reporters are not part of them.
UniProt P08913, whole entry: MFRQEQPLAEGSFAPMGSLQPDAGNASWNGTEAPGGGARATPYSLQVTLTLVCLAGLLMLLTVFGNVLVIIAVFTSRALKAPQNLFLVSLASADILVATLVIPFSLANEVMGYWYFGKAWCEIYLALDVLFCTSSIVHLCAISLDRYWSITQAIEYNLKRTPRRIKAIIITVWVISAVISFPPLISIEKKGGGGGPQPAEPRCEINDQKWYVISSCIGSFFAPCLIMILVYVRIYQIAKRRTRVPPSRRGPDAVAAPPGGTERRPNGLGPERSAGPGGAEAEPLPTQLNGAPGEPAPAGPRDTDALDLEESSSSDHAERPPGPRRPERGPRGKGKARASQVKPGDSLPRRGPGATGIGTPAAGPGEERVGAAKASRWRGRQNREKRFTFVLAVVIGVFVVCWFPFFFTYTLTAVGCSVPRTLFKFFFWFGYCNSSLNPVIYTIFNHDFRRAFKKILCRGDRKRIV

Structures were worked out from names or drawings and are uncertain.

The target of the assay is human α2a-AR (Homo sapiens, UniProt P08913). Briefly: [3H]Rauwolscine equilibrium competition binding, human α2a-AR expressed in CHO cells. The note with it: Table 1, ratio of Ki values; tested form: 2HCl, 2.5H2O.

Take `O=C(NCCCCCCCCCCCCNC(=O)[C@@H]1[C@H]2C[C@H]3c4[nH]c5ccccc5c4CCN3C[C@@H]2CC[C@@H]1O)[C@@H]1[C@H]2C[C@H]3c4[nH]c5ccccc5c4CCN3C[C@@H]2CC[C@@H]1O`: the α2a/α2b Selectivity = Ki(α2b)/Ki(α2a) stood at 15.7.
